{"source": "patent US20240299438A1", "about": "“METHOD FOR DIAGNOSIS AND TREATMENT OF AUTISM SPECTRUM DISORDER ON BASIS OF ACTIVITY REGULATION MECHANISM OF DORMANT NEURAL STEM CELL” (DONGGUK UNIVERSITY INDUSTRY-ACADEMIC COOPERATION FOUNDATION, priority 2021, published 2024)", "key": {"[1]": {"system": "Shank3-deficient mice", "test": "Social interaction behavioral test (3 chambers) after drug injection", "format": "in vivo, mouse", "conditions": "followed for 28 days after injection", "experimental": "FIG. 5 (A) Immunostaining results of quiescent neural stem cells in the SVZ of control and Shank3 KO mice injected with saline, OICR-9429 (3 mg/kg, once/day, 3 days), romidepsin (0.25 mg/kg, once/day, 3 days), and clozapine (5 mg/kg, once/day, 3 days). The yellow arrows indicate GFAP+Sox2+Dlx2− qNSCs. Scale bar=20 μm. (B) Immunostaining results of quiescent neural stem cells in the DG of control and Shank3 KO mice injected with saline, OICR-9429 (3 mg/kg, once/day, 3 days), romidepsin (0.25 mg/kg, once/day, 3 days), and clozapine (5 mg/kg, once/day, 3 days). The yellow arrows indicate GFAP+Sox2+NeuN− qNSCs. Scale bar=20 μm. (C-E) Quantification results of FAP+Sox2+Id2+ (C) and GFAP+Sox2+Dlx2− (D) qNSCs in the SVZ and GFAP+Sox2+NeuN− (E) qNSCs in the DG. (F) Quantification results of BrdU+ NSCs in the SVZ injected with saline, OICR-9429, romidepsin, and clozapine. Control and Shank3 KO mice injected with each drug were injected intraperitoneally with a daily dose of BrdU (100 mg/kg/day). (G) Quantification results of DCX+ NPCs in the DG of control and Shank3 KO mice injected with each drug. (H) Immunofluorescence analysis of GFAP+,Sox2+,BrdU+ aNSCs in the SVZ of control and Shank3 KO mice injected with each drug. Scale bar=100 μm. (I) Quantification results of BrdU+ cells in the SVZ of saline- or OICR-9429-treated control and Shank3 mice at different time points after TMZ injection. […]"}, "[2]": {"system": "HOMER1, SAPAP3, GluR1, NR2A", "test": "Western blot of synaptic proteins and glutamate receptor subunits in SHANK3-deficient human cultures", "format": "cell-based"}}, "note": "For at least one compound, name, drawing or mass did not settle the structure."}
{"smiles": "CN1CCN(C2=Nc3cc(Cl)ccc3Nc3ccccc32)CC1", "note": "[clozapine]", "values": [{"measurement": "social preference index (persistence of effect)", "setting": "[1]", "result": "significantly increased during 72 hours after injection, but then rapidly decreased"}, {"measurement": "expression levels of synaptic proteins HOMER1 and SAPAP3 and glutamate receptor subunits GluR1 and NR2A", "setting": "[2]", "result": "did not affect"}]}
